Data published in paper PMC3759450.
Results are given in words; binding and its absence hold for the method and conditions named. In cells and extracts the contact can be indirect. Some results given as binding are weak or reduced against the parent protein; the word gives no strength.

Amino acid sequences for entries named in this document (tags omitted).
UniProt P61088: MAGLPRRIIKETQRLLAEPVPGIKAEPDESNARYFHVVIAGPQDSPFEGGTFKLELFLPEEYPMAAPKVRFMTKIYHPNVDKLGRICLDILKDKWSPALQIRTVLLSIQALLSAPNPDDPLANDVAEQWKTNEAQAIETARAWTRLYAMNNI
UniProt O60260: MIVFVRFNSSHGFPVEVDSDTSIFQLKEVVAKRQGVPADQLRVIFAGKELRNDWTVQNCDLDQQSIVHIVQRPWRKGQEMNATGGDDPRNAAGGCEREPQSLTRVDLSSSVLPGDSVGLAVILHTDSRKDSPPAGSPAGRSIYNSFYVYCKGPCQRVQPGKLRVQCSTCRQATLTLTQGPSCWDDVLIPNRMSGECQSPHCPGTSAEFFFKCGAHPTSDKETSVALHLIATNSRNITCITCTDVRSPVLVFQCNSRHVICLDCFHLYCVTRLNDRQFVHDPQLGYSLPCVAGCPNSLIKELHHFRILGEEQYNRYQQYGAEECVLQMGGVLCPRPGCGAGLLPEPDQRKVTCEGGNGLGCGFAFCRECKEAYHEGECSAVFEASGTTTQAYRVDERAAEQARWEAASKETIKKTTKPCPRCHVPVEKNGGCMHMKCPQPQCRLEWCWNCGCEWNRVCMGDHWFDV
UniProt Q9UNE7: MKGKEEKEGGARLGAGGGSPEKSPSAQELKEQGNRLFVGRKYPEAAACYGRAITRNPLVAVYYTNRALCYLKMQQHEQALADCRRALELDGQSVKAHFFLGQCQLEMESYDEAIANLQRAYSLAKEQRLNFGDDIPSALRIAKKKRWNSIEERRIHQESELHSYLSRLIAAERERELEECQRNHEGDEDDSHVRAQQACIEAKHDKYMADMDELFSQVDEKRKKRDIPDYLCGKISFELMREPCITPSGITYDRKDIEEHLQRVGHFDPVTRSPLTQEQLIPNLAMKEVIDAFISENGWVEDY

What was measured:
myc-tagged Ubc13 [1] = target: myc-tagged Ubc13 (UniProt P61088); test: co-IP; anti-Ubc13 immunoprecipitation from Triton-X-soluble lysates of transfected HEK293 cells, immunoblot of the prey; cells untreated or treated with MG132; in one panel with co-expressed myc-DJ-1 L166P
myc-tagged Ubc13 [2] = target: myc-tagged Ubc13 (UniProt P61088); test: co-IP; anti-myc immunoprecipitation (protein G PLUS/protein A-agarose, five washes in lysis buffer) from Triton-X-soluble lysates of transfected HEK293 cells, immunoblot of the prey; cells untreated or treated with MG132 (1 or 2 uM, 16 h), PSI, lactacystin or DMSO; in some panels with co-expressed HA-synphilin-1 or YFP-Mfn2

Row | Substance | binding (myc-tagged Ubc13 [1]) | binding (myc-tagged Ubc13 [2])
1 | FLAG-tagged parkin (wild type) (from UniProt O60260 1-465) (enzyme) | binds | binds
2 | myc-tagged CHIP (from UniProt Q9UNE7 1-303) (enzyme) | binds | –
3 | untagged full length parkin (from UniProt O60260 1-465) (enzyme) | – | binds
